In the supplement of paper PMC10849652:
The other results are listed elsewhere or left out.

The chains behind the UniProt entries cited, without tags or fusion partners. Where a name states a change or a piece, a line headed by the entry shows the natural chain unless it says otherwise.
UniProt Q96IU4: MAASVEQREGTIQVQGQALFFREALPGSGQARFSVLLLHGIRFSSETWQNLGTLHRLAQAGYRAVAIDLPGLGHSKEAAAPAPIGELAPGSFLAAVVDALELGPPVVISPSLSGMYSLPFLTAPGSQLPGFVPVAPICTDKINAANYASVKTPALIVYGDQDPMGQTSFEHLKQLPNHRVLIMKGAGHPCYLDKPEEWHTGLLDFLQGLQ
UniProt P16219: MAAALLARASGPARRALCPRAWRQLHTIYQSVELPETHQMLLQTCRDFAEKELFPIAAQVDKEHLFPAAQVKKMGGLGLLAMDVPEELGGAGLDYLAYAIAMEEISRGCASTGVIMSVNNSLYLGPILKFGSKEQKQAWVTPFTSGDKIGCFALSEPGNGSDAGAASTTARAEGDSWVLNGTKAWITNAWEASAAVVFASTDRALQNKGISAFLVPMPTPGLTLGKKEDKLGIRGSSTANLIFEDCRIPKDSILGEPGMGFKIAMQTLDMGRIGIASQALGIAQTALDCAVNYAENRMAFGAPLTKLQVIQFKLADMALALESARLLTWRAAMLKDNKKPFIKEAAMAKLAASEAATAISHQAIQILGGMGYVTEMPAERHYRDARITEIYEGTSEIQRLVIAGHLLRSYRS
UniProt Q9Y305: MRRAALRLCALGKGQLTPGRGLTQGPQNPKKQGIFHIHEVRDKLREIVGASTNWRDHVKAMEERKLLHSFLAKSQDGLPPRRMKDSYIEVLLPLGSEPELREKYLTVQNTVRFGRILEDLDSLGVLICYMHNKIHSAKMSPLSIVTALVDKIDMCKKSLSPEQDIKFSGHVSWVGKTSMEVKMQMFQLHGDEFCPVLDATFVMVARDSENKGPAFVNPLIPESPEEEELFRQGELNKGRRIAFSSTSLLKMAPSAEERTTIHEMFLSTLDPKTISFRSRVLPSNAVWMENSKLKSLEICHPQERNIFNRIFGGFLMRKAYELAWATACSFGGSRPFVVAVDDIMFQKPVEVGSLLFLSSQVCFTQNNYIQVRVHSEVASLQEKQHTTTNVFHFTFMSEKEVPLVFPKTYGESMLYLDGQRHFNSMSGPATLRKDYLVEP
UniProt Q6DHV7: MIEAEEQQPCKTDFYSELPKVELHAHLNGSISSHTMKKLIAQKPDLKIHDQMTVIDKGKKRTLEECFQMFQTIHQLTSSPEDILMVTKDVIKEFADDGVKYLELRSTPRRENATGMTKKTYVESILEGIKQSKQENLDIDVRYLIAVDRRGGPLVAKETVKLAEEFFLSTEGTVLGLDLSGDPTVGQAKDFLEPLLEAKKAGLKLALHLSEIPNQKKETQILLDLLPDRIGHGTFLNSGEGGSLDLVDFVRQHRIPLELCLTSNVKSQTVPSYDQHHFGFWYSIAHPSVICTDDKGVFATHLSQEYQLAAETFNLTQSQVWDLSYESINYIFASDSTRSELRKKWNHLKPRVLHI
UniProt P49588, whole entry, looked up: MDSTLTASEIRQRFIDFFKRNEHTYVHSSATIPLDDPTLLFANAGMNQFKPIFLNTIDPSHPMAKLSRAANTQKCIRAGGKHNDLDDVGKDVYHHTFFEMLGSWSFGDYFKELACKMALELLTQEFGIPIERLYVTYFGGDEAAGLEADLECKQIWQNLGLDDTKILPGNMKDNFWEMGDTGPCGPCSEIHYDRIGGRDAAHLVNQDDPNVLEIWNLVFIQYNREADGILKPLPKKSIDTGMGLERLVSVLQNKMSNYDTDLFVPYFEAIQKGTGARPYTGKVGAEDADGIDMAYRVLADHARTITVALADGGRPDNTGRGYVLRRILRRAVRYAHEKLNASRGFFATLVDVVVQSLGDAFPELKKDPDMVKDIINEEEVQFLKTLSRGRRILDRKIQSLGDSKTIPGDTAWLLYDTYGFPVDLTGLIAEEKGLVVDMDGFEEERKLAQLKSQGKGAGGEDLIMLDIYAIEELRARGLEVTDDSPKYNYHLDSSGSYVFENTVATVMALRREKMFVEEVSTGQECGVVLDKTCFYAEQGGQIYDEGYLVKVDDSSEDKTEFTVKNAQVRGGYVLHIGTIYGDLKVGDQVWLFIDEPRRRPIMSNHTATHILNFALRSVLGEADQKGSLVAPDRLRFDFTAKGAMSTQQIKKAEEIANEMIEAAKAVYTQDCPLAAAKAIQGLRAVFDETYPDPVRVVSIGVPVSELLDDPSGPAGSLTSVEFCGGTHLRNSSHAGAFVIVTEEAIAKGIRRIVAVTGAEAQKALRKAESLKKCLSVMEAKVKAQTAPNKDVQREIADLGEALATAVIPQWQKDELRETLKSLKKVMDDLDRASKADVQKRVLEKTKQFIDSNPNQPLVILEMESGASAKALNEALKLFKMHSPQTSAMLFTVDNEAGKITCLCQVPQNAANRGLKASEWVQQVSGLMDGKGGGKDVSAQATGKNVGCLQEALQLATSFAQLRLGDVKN
UniProt Q9NPJ3: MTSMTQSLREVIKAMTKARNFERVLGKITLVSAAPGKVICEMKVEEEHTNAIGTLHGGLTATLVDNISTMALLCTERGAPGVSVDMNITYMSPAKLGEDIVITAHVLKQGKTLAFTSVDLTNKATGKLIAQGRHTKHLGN
UniProt O96019, whole entry, looked up: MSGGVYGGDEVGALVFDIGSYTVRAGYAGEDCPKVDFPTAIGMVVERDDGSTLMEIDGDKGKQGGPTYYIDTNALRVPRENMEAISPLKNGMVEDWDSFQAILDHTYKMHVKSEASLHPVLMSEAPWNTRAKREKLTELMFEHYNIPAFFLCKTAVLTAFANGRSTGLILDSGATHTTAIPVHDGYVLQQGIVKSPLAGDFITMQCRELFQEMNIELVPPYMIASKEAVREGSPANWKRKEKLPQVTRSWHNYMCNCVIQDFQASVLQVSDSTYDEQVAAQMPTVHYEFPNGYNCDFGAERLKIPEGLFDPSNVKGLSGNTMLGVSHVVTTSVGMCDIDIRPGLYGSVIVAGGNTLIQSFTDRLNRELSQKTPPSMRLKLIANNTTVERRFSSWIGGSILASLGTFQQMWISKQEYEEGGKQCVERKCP
UniProt Q7Z6V5: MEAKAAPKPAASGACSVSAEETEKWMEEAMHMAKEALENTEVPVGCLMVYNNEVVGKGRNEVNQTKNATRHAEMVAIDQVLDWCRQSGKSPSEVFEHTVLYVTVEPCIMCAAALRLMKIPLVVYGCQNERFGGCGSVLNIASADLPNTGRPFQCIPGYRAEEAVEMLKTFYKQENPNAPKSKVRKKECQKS
UniProt Q9NRK6: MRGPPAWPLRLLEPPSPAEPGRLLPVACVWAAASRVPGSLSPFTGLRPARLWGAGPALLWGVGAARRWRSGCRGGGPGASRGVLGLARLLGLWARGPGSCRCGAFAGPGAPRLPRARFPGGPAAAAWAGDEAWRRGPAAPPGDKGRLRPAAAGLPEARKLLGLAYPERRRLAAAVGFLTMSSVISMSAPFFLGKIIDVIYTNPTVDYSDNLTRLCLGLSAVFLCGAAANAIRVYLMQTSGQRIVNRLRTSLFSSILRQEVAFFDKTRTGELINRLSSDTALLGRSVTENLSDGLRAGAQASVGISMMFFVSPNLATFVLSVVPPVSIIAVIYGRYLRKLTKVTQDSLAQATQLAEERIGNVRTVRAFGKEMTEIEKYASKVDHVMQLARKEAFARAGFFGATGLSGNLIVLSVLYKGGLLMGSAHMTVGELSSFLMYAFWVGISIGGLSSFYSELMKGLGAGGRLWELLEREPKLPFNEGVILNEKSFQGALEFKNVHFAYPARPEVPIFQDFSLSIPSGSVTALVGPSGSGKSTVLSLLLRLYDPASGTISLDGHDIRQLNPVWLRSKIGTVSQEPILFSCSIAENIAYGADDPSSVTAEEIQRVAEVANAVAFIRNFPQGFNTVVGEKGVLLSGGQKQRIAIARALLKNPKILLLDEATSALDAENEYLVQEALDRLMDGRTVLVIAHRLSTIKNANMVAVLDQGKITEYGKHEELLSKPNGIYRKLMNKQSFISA
UniProt P78536: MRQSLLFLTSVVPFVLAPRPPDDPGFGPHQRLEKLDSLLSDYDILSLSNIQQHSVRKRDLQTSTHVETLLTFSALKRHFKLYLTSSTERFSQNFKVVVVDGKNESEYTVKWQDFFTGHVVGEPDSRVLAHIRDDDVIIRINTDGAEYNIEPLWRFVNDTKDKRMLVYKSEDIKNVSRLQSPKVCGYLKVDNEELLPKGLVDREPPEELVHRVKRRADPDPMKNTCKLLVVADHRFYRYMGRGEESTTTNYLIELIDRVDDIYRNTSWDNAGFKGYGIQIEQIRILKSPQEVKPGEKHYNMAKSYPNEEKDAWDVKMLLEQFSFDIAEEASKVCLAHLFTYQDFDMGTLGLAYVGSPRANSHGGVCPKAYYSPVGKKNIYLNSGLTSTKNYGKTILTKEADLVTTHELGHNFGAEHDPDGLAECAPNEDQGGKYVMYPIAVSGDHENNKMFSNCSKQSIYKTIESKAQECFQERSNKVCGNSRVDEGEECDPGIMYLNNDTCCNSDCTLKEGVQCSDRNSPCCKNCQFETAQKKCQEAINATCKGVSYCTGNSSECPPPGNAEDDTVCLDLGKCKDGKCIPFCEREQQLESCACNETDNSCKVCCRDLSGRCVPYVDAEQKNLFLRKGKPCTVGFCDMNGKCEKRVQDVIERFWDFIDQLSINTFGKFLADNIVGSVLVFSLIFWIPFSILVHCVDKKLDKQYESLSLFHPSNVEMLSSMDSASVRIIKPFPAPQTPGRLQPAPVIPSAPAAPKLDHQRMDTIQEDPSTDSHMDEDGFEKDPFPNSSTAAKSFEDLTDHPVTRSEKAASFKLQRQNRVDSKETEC
UniProt Q9NUQ8: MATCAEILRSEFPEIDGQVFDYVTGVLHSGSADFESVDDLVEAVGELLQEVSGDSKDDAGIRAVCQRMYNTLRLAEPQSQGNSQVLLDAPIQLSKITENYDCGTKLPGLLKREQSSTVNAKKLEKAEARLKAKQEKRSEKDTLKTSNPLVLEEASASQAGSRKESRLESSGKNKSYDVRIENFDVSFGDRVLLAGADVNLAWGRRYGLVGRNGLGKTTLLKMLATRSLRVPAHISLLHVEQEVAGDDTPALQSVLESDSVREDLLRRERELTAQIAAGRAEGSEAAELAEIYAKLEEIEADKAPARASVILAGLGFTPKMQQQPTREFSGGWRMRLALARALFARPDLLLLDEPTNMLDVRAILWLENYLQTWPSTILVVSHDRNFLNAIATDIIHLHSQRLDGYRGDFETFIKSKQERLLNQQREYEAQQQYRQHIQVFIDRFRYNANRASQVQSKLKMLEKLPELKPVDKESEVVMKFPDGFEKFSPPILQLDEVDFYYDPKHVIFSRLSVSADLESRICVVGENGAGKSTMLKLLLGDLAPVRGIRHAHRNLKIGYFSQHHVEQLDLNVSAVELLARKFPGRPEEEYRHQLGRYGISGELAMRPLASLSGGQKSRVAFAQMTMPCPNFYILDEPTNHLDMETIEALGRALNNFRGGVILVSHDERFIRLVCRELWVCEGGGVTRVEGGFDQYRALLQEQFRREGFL
UniProt Q9NUJ1: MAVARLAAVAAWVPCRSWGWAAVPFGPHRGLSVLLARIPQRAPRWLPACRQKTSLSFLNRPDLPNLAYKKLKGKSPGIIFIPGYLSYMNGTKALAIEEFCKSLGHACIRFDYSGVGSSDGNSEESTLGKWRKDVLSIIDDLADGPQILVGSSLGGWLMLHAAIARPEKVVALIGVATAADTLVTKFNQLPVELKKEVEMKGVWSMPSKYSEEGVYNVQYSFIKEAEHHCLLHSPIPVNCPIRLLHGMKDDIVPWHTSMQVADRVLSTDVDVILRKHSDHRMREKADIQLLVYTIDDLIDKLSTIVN

What was measured:
Assay in all cases: log2 fold change, soluble protein after heating vs DMSO (PISA); higher = thermal stabilisation; K562 cells, 10 uM, 30 min; active = over 0.2 and 3.5 SD of the protein, either way, in both replicates (recomputed)
saracatinib = compound: CN1CCN(CCOc2cc(OC3CCOCC3)c3c(Nc4c(Cl)ccc5c4OCO5)ncnc3c2)CC1 [saracatinib]
Outline: (§1)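 K562 cells at 2×10^6 cells/mL were exposed to 10 μM compound for 30 min, then aliquots were heated for 3 min across 48°C-58°C, pooled, and extracted in PBS containing 0.5% NP-40 at 4°C. The supernatant after 21,000xg for 90 min was taken as soluble protein and measured by TMTpro 16plex LC-MS/MS with channel sums equalised. Thermal stability is reported relative to control samples, with values from duplicates. Fold changes are given on a log2 scale.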

sotrastaurin = compound: CN1CCN(c2nc(C3=C(c4c[nH]c5ccccc45)C(=O)NC3=O)c3ccccc3n2)CC1 [sotrastaurin]
Outline: as §1

alvocidib = compound: CN1CC[C@H](c2c(O)cc(O)c3c(=O)cc(-c4ccccc4Cl)oc23)[C@H](O)C1 [alvocidib]
Outline: as §1

Tubastatin A = compound: CN1CCc2c(c3ccccc3n2Cc2ccc(C(=O)NO)cc2)C1 [Tubastatin A]
Outline: as §1

[1] = compound: CNC(=O)C1=CC=CC=C1NC2=NC(=NC=C2Cl)NC3=C(C=C(C=C3)N4CCOCC4)OC
Outline: as §1

defactinib = compound: CNC(=O)c1ccc(Nc2ncc(C(F)(F)F)c(NCc3nccnc3N(C)S(C)(=O)=O)n2)cc1 [defactinib]
Outline: as §1

rucaparib = compound: CNCc1ccc(-c2[nH]c3cc(F)cc4c3c2CCNC4=O)cc1 [rucaparib]
Outline: as §1

[2] = compound: CNc1nc(-c2ccc3c(N)n[nH]c3c2)cc(N2C[C@@H](C(=O)NC3CCCCC3)CC[C@H]2C)n1
Outline: as §1

encorafenib = compound: COC(=O)N[C@@H](C)CNc1nccc(-c2cn(C(C)C)nc2-c2cc(Cl)cc(NS(C)(=O)=O)c2F)n1 [encorafenib]
Outline: as §1

[3] = compound: COC(=O)[C@H](CCSC)NC(=O)C1=C(C=C(C=C1)NC[C@H](CS)N)C2=CC=CC=C2
Outline: as §1

[4] = compound: COC1=CC=C(C=C1)CN2C=CC3=C2C=C(C=C3)C(=O)NO
Outline: as §1

filanesib = compound: CON(C)C(=O)N1N=C(c2cc(F)ccc2F)S[C@@]1(CCCN)c1ccccc1 [filanesib]
Outline: as §1

zotarolimus = compound: CO[C@H]1C[C@@H]2CC[C@@H](C)[C@@](O)(O2)C(=O)C(=O)N2CCCC[C@H]2C(=O)O[C@H]([C@H](C)C[C@@H]2CC[C@H](n3cnnn3)[C@H](OC)C2)CC(=O)[C@H](C)/C=C(\C)[C@@H](O)[C@@H](OC)C(=O)[C@H](C)C[C@H](C)/C=C/C=C/C=C/1C [zotarolimus]
Outline: as §1

idasanutlin = compound: COc1cc(C(=O)O)ccc1NC(=O)[C@@H]1N[C@@H](CC(C)(C)C)[C@](C#N)(c2ccc(Cl)cc2F)[C@H]1c1cccc(Cl)c1F [idasanutlin]
Outline: as §1

alisertib = compound: COc1cc(Nc2ncc3c(n2)-c2ccc(Cl)cc2C(c2c(F)cccc2OC)=NC3)ccc1C(=O)O [alisertib]
Outline: as §1

[5] = compound: COc1cc2nc(-c3cc(F)ccc3O)nc(N[C@@H]3CNC[C@H]3C(C)(C)O)c2cc1OC
Outline: as §1

gefitinib = compound: COc1cc2ncnc(Nc3ccc(F)c(Cl)c3)c2cc1OCCCN1CCOCC1 [gefitinib]
Outline: as §1

[6] = compound: COc1cccc2cc(-c3nc([C@H]4CC[C@H](C(=O)O)CC4)n4ncnc(N)c34)[nH]c12
Outline: as §1

lapatinib = compound: CS(=O)(=O)CCNCc1ccc(-c2ccc3ncnc(Nc4ccc(OCc5cccc(F)c5)c(Cl)c4)c3c2)o1 [lapatinib]
Outline: as §1

pictilisib = compound: CS(=O)(=O)N1CCN(Cc2cc3nc(-c4cccc5[nH]ncc45)nc(N4CCOCC4)c3s2)CC1 [pictilisib]
Outline: as §1

Measured: log2 fold change

ACADSB (UniProt P45954)
inactive: saracatinib -0.019 | sotrastaurin 0.084 | alvocidib -0.066 | Tubastatin A 0.071 | [1] 0.008 | defactinib -0.048 | rucaparib -0.041 | [2] 0.057 | encorafenib -0.019 | [3] 0.009 | [4] 0.086 | filanesib -0.024 | zotarolimus 0.012 | idasanutlin -0.101 | alisertib 0.048 | [5] 0.005 | gefitinib -0.003 | [6] 0.03 | lapatinib 0.044 | pictilisib 0.085

ACTR2 (UniProt P61160)
inactive: saracatinib -0.018 | sotrastaurin 0.002 | alvocidib -0.017 | Tubastatin A -0.017 | [1] 0.037 | defactinib -0.025 | rucaparib -0.012 | [2] -0.061 | encorafenib -0.008 | [3] -0.007 | [4] -0.033 | filanesib 0.012 | zotarolimus 0.019 | idasanutlin -0.027 | alisertib -0.002 | [5] 0.032 | gefitinib -0.007 | [6] 0.068 | lapatinib -0.033 | pictilisib 0.047

ABHD14B (UniProt Q96IU4)
inactive: saracatinib 0.044 | sotrastaurin -0.013 | alvocidib -0.106 | Tubastatin A -0.013 | [1] 0.045 | defactinib -0.047 | rucaparib -0.073 | [2] -0.017 | encorafenib -0.005 | [3] 0.046 | [4] 0.046 | filanesib 0.001 | zotarolimus 0.022 | idasanutlin -0.037 | alisertib -0.061 | [5] -0.037 | gefitinib 0.041 | [6] 0.017 | lapatinib 0.006 | pictilisib -0.011

Reprinted at random: two entries already listed, in no set order.
ACADSB (UniProt P45954)
inactive: saracatinib -0.019 | sotrastaurin 0.084 | alvocidib -0.066 | Tubastatin A 0.071 | [1] 0.008 | defactinib -0.048 | rucaparib -0.041 | [2] 0.057 | encorafenib -0.019 | [3] 0.009 | [4] 0.086 | filanesib -0.024 | zotarolimus 0.012 | idasanutlin -0.101 | alisertib 0.048 | [5] 0.005 | gefitinib -0.003 | [6] 0.03 | lapatinib 0.044 | pictilisib 0.085

ABHD14B (UniProt Q96IU4)
inactive: saracatinib 0.044 | sotrastaurin -0.013 | alvocidib -0.106 | Tubastatin A -0.013 | [1] 0.045 | defactinib -0.047 | rucaparib -0.073 | [2] -0.017 | encorafenib -0.005 | [3] 0.046 | [4] 0.046 | filanesib 0.001 | zotarolimus 0.022 | idasanutlin -0.037 | alisertib -0.061 | [5] -0.037 | gefitinib 0.041 | [6] 0.017 | lapatinib 0.006 | pictilisib -0.011

(continued)

ACADS (UniProt P16219)
inactive: saracatinib 0.039 | sotrastaurin 0.075 | alvocidib -0.067 | Tubastatin A -0.003 | [1] -0.003 | defactinib 0.054 | rucaparib -0.052 | [2] 0.01 | encorafenib -0.099 | [3] -0.034 | [4] 0.063 | filanesib -0.065 | zotarolimus -0.028 | idasanutlin -0.115 | alisertib -0.074 | [5] 0.041 | gefitinib -0.022 | [6] 0.045 | lapatinib -0.021 | pictilisib 0.104

ACOT9 isoform 4 (UniProt Q9Y305)
inactive: saracatinib -0.102 | sotrastaurin 0.054 | alvocidib 0.031 | Tubastatin A 0 | [1] -0.073 | defactinib 0.057 | rucaparib 0.216 | [2] 0.127 | encorafenib 0.041 | [3] -0.032 | [4] 0.009 | filanesib 0.134 | zotarolimus 0.012 | idasanutlin 0.057 | alisertib -0.11 | [5] -0.095 | gefitinib 0.006 | [6] -0.044 | lapatinib 0.056 | pictilisib -0.027

ADAL (UniProt Q6DHV7)
inactive: saracatinib 0.025 | sotrastaurin 0.011 | alvocidib 0.005 | Tubastatin A -0.039 | [1] -0.038 | defactinib 0.029 | rucaparib -0.066 | [2] -0.022 | encorafenib -0.029 | [3] 0.024 | [4] 0.06 | filanesib -0.049 | zotarolimus -0.031 | idasanutlin -0.038 | alisertib -0.127 | [5] 0.019 | gefitinib -0.024 | [6] 0.014 | lapatinib 0.025 | pictilisib -0.014

ACACA isoform 4 (UniProt Q13085)
inactive: saracatinib -0.192 | sotrastaurin -0.2 | alvocidib 0.072 | Tubastatin A 0.112 | [1] -0.021 | defactinib -0.029 | rucaparib 0.381 | [2] 0.137 | encorafenib 0.205 | [3] -0.115 | [4] -0.03 | filanesib 0.144 | zotarolimus 0.084 | idasanutlin 0.063 | alisertib -0.093 | [5] 0.096 | gefitinib 0.061 | [6] -0.231 | lapatinib 0.07 | pictilisib -0.009

AARS (UniProt P49588)
inactive: saracatinib 0.024 | sotrastaurin -0.003 | alvocidib -0.022 | Tubastatin A -0.013 | [1] -0.005 | defactinib 0 | rucaparib -0.084 | [2] -0.006 | encorafenib 0.013 | [3] 0 | [4] 0.047 | filanesib -0.11 | zotarolimus 0.024 | idasanutlin -0.055 | alisertib -0.038 | [5] -0.019 | gefitinib -0.031 | [6] 0.019 | lapatinib -0.012 | pictilisib 0

ACOT13 (UniProt Q9NPJ3)
inactive: saracatinib 0.063 | sotrastaurin -0.007 | alvocidib -0.014 | Tubastatin A 0.018 | [1] 0.014 | defactinib -0.032 | rucaparib 0.014 | [2] -0.027 | encorafenib -0.023 | [3] 0.028 | [4] 0.219 | filanesib -0.134 | zotarolimus 0.024 | idasanutlin -0.08 | alisertib -0.053 | [5] -0.016 | gefitinib -0.001 | [6] 0.054 | lapatinib -0.009 | pictilisib -0.195

ACTL6A (UniProt O96019)
inactive: saracatinib 0.015 | sotrastaurin 0.011 | alvocidib -0.04 | Tubastatin A -0.017 | [1] -0.037 | defactinib 0.003 | rucaparib -0.034 | [2] 0.018 | encorafenib -0.003 | [3] -0.01 | [4] 0.051 | filanesib -0.026 | zotarolimus 0.001 | idasanutlin -0.048 | alisertib -0.014 | [5] 0.025 | gefitinib 0.007 | [6] 0.023 | lapatinib -0.003 | pictilisib 0.046

ADAT2 (UniProt Q7Z6V5)
inactive: saracatinib 0.079 | sotrastaurin 0.083 | alvocidib -0.002 | Tubastatin A -0.008 | [1] -0.04 | defactinib -0.032 | rucaparib -0.002 | [2] -0.077 | encorafenib -0.003 | [3] 0.012 | [4] 0.106 | filanesib 0.018 | zotarolimus 0.023 | idasanutlin -0.012 | alisertib -0.027 | [5] -0.014 | gefitinib -0.02 | [6] 0.057 | lapatinib -0.036 | pictilisib -0.054

ABCB10 (UniProt Q9NRK6)
inactive: saracatinib 0.02 | sotrastaurin 0.046 | alvocidib -0.019 | Tubastatin A -0.023 | [1] 0.002 | defactinib -0.001 | rucaparib -0.035 | [2] -0.052 | encorafenib -0.021 | [3] 0.027 | [4] -0.043 | filanesib -0.038 | zotarolimus 0.006 | idasanutlin -0.028 | alisertib -0.092 | [5] 0.029 | gefitinib 0.011 | [6] 0.052 | lapatinib -0.005 | pictilisib 0.016

ADAM17 (UniProt P78536)
inactive: saracatinib 0.012 | sotrastaurin 0.021 | alvocidib -0.03 | Tubastatin A 0.022 | [1] -0.019 | defactinib 0.038 | rucaparib 0.066 | [2] -0.083 | encorafenib 0.055 | [3] 0.03 | [4] -0.152 | filanesib 0.014 | zotarolimus 0.039 | idasanutlin -0.027 | alisertib -0.003 | [5] -0.014 | gefitinib 0.027 | [6] -0.028 | lapatinib -0.009 | pictilisib 0.018

ABCF3 (UniProt Q9NUQ8)
inactive: saracatinib -0.104 | sotrastaurin -0.111 | alvocidib 0.202 | Tubastatin A 0.009 | [1] -0.088 | defactinib 0.073 | rucaparib 0.096 | [2] 0.168 | encorafenib 0.013 | [3] -0.024 | [4] -0.052 | filanesib 0.333 | zotarolimus 0.027 | idasanutlin 0.233 | alisertib -0.115 | [5] -0.171 | gefitinib 0.034 | [6] -0.276 | lapatinib 0.039 | pictilisib 0.266

ABRAXAS2 (UniProt Q15018)
inactive: saracatinib 0.018 | sotrastaurin 0.051 | alvocidib -0.058 | Tubastatin A -0.116 | [1] -0.041 | defactinib -0.015 | rucaparib -0.022 | [2] -0.022 | encorafenib -0.012 | [3] 0.024 | [4] -0.038 | filanesib -0.03 | zotarolimus 0.019 | idasanutlin -0.019 | alisertib -0.013 | [5] -0.003 | gefitinib -0.003 | [6] 0.023 | lapatinib -0.004 | pictilisib -0.007

ABHD10 (UniProt Q9NUJ1)
inactive: saracatinib 0.059 | sotrastaurin 0.065 | alvocidib 0.059 | Tubastatin A -0.014 | [1] 0.01 | defactinib 0.008 | rucaparib -0.025 | [2] -0.061 | encorafenib -0.031 | [3] 0.045 | [4] 0.104 | filanesib 0 | zotarolimus 0.024 | idasanutlin -0.05 | alisertib -0.022 | [5] -0.003 | gefitinib 0.016 | [6] 0.068 | lapatinib 0.02 | pictilisib 0.01
